# According to the supplement of paper PMC10849652:
# Chains of the proteins cited; added tags and fusions are not shown. Lines headed by an entry give the natural chain unless they say otherwise; changes in a name come on top.
# UniProt Q9NRR8: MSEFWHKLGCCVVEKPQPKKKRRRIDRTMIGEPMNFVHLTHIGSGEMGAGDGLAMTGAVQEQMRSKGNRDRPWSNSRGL
# UniProt Q9Y6H1: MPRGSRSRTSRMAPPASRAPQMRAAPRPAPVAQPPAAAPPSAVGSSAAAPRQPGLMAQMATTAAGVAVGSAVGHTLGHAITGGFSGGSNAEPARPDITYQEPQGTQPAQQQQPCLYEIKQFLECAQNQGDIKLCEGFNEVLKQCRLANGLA
# UniProt Q49AH0, whole entry, looked up: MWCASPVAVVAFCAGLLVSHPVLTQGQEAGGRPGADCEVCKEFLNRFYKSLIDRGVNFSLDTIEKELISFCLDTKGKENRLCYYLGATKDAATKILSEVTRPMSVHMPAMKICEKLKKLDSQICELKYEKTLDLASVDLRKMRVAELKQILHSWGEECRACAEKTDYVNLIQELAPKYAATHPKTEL
# UniProt Q13112, whole entry, looked up: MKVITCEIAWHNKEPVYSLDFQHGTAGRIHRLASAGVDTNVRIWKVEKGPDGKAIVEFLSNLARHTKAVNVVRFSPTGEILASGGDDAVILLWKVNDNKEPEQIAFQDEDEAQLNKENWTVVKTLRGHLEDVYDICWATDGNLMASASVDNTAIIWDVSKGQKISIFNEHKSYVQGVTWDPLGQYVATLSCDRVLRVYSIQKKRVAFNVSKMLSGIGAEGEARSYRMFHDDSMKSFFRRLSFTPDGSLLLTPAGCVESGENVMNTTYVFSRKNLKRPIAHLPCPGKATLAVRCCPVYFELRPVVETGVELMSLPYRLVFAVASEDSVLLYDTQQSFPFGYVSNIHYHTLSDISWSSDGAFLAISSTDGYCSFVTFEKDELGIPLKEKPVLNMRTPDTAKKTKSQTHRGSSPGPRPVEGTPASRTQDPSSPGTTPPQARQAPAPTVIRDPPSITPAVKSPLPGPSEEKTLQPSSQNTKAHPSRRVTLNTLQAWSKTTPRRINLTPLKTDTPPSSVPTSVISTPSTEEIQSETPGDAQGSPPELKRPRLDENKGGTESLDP
# UniProt P06493, whole entry, looked up: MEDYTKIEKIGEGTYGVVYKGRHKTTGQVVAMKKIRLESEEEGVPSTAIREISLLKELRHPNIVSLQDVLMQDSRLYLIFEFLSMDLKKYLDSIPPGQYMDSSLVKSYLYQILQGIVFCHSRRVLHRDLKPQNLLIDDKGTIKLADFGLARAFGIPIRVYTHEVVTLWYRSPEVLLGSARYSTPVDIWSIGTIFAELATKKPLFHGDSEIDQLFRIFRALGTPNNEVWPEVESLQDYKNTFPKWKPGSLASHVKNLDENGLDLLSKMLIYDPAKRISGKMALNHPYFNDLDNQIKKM
# UniProt Q13111, whole entry, looked up: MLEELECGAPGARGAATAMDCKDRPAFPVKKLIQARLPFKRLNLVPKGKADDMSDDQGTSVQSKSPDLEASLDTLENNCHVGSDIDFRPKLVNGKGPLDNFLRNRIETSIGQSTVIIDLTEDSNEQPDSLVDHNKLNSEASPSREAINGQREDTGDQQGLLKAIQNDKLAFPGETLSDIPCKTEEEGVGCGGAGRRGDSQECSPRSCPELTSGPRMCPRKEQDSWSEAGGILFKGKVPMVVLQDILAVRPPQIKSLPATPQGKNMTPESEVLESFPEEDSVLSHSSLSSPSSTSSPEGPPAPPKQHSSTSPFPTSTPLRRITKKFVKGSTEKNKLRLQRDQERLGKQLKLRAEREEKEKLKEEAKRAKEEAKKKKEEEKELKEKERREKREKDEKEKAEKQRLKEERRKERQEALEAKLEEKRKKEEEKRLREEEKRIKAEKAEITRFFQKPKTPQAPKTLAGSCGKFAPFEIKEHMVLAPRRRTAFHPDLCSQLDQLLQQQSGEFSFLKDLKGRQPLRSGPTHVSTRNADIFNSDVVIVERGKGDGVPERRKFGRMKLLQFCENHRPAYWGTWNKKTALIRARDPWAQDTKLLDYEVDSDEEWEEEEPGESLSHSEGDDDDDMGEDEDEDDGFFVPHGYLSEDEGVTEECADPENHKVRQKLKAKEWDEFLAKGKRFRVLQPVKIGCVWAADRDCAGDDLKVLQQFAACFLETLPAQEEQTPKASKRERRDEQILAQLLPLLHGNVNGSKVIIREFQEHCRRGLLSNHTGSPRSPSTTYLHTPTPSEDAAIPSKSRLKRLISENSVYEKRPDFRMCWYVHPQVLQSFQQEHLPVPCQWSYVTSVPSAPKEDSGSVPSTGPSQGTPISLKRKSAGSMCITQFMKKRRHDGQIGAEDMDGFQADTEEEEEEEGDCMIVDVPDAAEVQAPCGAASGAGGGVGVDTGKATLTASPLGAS
# UniProt Q00534, whole entry, looked up: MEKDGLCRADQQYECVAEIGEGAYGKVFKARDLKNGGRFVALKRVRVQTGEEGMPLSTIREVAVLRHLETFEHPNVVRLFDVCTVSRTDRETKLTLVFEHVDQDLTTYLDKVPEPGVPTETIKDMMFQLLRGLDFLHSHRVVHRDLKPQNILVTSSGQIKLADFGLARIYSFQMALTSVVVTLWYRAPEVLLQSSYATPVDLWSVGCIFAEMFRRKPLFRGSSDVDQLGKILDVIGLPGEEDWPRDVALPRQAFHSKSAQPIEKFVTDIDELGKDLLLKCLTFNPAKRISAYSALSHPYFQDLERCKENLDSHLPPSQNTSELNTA
# UniProt Q00535, whole entry, looked up: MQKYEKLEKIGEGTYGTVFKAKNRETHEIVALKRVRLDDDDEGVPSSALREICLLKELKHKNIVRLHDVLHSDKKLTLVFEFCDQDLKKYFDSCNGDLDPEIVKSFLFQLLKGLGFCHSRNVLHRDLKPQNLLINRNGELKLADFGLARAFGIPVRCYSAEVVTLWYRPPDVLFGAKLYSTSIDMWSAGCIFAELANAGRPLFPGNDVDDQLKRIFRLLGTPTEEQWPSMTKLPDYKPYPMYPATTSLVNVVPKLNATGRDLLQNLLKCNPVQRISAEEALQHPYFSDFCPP
# UniProt Q9H3R5: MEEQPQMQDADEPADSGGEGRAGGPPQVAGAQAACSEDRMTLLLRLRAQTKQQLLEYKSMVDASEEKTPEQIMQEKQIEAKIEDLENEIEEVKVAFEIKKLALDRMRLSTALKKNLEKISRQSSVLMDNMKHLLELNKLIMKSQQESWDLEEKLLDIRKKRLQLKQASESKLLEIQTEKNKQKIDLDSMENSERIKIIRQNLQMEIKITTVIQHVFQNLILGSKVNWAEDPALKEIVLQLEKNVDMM
# UniProt Q5SW79: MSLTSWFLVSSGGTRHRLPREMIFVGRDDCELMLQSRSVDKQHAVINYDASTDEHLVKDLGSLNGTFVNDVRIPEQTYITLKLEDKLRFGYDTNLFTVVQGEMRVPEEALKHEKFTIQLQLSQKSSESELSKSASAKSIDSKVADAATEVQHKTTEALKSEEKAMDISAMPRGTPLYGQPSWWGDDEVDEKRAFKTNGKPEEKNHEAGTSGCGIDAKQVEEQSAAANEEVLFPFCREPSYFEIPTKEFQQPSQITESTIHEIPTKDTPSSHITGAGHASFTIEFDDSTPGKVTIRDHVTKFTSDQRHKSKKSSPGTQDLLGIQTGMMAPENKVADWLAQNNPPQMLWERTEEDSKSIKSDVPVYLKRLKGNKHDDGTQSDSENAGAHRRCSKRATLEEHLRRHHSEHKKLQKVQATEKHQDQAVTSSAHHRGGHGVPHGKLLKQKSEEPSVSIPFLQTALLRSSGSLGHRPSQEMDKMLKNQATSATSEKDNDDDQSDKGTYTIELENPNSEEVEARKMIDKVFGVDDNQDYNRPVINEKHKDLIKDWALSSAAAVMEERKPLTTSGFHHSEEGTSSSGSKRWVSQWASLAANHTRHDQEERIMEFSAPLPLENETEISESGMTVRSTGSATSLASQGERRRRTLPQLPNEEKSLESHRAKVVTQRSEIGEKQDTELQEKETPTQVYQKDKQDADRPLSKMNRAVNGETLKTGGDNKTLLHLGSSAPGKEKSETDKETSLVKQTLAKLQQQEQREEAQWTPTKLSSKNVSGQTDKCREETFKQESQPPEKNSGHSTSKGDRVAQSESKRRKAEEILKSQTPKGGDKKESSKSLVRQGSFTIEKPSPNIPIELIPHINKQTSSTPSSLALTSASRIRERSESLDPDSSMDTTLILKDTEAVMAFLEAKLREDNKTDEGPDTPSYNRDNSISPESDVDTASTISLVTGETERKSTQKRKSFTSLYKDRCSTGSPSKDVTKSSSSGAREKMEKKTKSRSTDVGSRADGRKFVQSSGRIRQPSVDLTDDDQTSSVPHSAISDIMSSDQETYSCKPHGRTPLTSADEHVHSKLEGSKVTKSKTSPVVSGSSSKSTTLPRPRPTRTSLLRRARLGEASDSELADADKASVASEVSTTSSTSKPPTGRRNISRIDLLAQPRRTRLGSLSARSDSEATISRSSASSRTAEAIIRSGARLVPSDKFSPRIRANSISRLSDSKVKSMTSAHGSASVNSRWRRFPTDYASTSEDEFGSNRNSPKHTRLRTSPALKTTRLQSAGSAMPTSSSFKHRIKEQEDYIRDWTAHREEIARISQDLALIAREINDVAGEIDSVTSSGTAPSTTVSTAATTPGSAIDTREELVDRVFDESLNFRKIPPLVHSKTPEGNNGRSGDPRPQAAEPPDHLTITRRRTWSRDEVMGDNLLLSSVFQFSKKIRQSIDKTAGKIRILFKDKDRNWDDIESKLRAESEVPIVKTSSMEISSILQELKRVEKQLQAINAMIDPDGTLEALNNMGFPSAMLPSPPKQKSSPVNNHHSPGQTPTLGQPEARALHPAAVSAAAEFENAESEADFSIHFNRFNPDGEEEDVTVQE
# UniProt Q00536: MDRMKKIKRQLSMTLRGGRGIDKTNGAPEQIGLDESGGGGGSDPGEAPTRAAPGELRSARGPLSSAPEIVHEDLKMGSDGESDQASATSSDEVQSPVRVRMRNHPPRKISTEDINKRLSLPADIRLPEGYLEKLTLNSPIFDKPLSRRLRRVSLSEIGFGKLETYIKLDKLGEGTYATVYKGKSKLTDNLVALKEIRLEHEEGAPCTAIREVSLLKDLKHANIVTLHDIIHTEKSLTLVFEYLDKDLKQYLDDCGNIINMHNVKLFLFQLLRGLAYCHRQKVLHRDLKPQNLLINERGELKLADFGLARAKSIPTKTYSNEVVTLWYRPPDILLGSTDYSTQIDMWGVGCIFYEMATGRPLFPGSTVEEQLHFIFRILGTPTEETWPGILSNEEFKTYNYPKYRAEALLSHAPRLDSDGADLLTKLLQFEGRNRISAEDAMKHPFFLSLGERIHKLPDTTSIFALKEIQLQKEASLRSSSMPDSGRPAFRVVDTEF
# UniProt Q8N4Q1: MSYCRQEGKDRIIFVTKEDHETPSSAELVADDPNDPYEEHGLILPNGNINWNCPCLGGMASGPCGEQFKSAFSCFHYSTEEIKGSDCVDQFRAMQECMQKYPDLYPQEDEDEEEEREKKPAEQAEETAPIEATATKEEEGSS
# UniProt Q9Y6K0: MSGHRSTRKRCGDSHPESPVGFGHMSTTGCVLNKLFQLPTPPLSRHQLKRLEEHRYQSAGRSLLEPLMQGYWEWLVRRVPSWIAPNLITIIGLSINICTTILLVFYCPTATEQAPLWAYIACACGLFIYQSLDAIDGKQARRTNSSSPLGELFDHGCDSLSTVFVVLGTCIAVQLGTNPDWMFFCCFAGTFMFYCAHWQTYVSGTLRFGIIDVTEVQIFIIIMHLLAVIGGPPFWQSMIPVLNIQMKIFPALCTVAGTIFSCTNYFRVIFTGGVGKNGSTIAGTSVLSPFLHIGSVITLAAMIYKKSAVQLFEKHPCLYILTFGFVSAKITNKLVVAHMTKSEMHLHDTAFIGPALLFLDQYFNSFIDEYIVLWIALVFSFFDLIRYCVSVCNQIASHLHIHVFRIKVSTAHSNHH
# UniProt Q8N2Z9: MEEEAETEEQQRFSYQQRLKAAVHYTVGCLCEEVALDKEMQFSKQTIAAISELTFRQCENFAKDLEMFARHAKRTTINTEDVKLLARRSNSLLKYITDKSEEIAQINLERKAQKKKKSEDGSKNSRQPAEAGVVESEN
# UniProt Q9C0F1: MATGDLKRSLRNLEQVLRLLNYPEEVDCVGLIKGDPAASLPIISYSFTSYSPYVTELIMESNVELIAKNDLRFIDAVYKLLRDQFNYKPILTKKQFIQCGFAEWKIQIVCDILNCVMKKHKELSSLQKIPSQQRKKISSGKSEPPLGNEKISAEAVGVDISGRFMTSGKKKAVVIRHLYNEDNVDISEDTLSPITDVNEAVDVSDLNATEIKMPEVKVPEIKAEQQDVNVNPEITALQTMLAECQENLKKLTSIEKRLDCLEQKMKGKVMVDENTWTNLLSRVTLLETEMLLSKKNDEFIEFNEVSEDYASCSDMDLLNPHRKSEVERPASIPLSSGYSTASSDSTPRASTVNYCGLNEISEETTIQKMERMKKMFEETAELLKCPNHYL
# UniProt O15182: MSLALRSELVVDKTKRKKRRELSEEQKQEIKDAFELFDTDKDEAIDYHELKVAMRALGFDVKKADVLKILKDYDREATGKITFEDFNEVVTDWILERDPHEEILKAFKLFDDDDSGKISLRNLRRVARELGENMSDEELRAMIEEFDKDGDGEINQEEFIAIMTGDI
# UniProt P41208: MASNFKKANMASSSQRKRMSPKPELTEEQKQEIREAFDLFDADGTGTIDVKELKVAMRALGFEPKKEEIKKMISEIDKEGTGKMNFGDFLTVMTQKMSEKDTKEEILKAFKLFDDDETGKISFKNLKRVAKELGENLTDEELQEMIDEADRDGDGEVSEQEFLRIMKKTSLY
# The other results are listed elsewhere or left out.
# What was measured:
# Test in all cases: log2 fold change, soluble protein after heating vs DMSO (PISA); higher = thermal stabilisation; K562 cells, 10 uM, 30 min; active = over 0.2 and 3.5 SD of the protein, either way, in both replicates (recomputed)
# [1] = compound: COC1=CC=C(C=C1)CN2C=CC3=C2C=C(C=C3)C(=O)NO
# In short: (§1)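 K562 cells (2×10^6 cells/mL) were treated with 10 μM compound for 30 min, and aliquots were heated for 3 min over 48°C-58°C. Pooled aliquots were extracted in PBS with 0.5% NP-40 at 4°C, and the supernatant after 21,000xg for 90 min was measured by TMTpro 16plex LC-MS/MS with channel sums equalised. Reported thermal stability, relative to control samples and from duplicates, is a log2 fold change.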
# filanesib = compound: CON(C)C(=O)N1N=C(c2cc(F)ccc2F)S[C@@]1(CCCN)c1ccccc1 [filanesib]
# In short: as §1
# zotarolimus = compound: CO[C@H]1C[C@@H]2CC[C@@H](C)[C@@](O)(O2)C(=O)C(=O)N2CCCC[C@H]2C(=O)O[C@H]([C@H](C)C[C@@H]2CC[C@H](n3cnnn3)[C@H](OC)C2)CC(=O)[C@H](C)/C=C(\C)[C@@H](O)[C@@H](OC)C(=O)[C@H](C)C[C@H](C)/C=C/C=C/C=C/1C [zotarolimus]
# In short: as §1
# idasanutlin = compound: COc1cc(C(=O)O)ccc1NC(=O)[C@@H]1N[C@@H](CC(C)(C)C)[C@](C#N)(c2ccc(Cl)cc2F)[C@H]1c1cccc(Cl)c1F [idasanutlin]
# In short: as §1
# alisertib = compound: COc1cc(Nc2ncc3c(n2)-c2ccc(Cl)cc2C(c2c(F)cccc2OC)=NC3)ccc1C(=O)O [alisertib]
# In short: as §1
# [2] = compound: COc1cc2nc(-c3cc(F)ccc3O)nc(N[C@@H]3CNC[C@H]3C(C)(C)O)c2cc1OC
# In short: as §1
# gefitinib = compound: COc1cc2ncnc(Nc3ccc(F)c(Cl)c3)c2cc1OCCCN1CCOCC1 [gefitinib]
# In short: as §1
# [3] = compound: COc1cccc2cc(-c3nc([C@H]4CC[C@H](C(=O)O)CC4)n4ncnc(N)c34)[nH]c12
# In short: as §1
# lapatinib = compound: CS(=O)(=O)CCNCc1ccc(-c2ccc3ncnc(Nc4ccc(OCc5cccc(F)c5)c(Cl)c4)c3c2)o1 [lapatinib]
# In short: as §1
# pictilisib = compound: CS(=O)(=O)N1CCN(Cc2cc3nc(-c4cccc5[nH]ncc45)nc(N4CCOCC4)c3s2)CC1 [pictilisib]
# In short: as §1
Target,log2 fold change [1],log2 fold change (filanesib),log2 fold change (zotarolimus),log2 fold change (idasanutlin),log2 fold change (alisertib),log2 fold change [2],log2 fold change (gefitinib),log2 fold change [3],log2 fold change (lapatinib),log2 fold change (pictilisib)
CHML (UniProt P26374),inactive: -0.017,inactive: -0.012,inactive: 0.031,inactive: -0.085,inactive: -0.019,inactive: 0.059,inactive: 0.006,inactive: 0.01,inactive: 0.008,inactive: 0.04
CHID1 (UniProt Q9BWS9),inactive: -0.017,inactive: 0.054,inactive: -0.001,inactive: 0.039,inactive: -0.179,inactive: -0.017,inactive: -0.017,inactive: -0.101,inactive: 0.119,inactive: -0.089
CDC42SE1 (UniProt Q9NRR8),inactive: -0.011,inactive: -0.049,inactive: 0,inactive: -0.093,inactive: 0.003,inactive: 0.036,inactive: -0.025,inactive: -0.168,inactive: -0.088,–
CHCHD2 (UniProt Q9Y6H1),inactive: 0.101,inactive: 0.026,inactive: -0.024,active: -0.457,inactive: 0.053,inactive: -0.002,inactive: -0.028,inactive: -0.155,inactive: -0.024,inactive: 0.031
CHKA (UniProt P35790),inactive: -0.021,inactive: 0.02,inactive: -0.148,inactive: -0.009,inactive: -0.032,inactive: 0.065,inactive: -0.016,inactive: 0.004,inactive: -0.013,inactive: 0.041
CEP41 (UniProt Q9BYV8),inactive: -0.02,inactive: -0.051,–,–,–,–,–,–,–,–
CHCHD1 (UniProt Q96BP2),inactive: 0.037,inactive: -0.017,inactive: -0.001,inactive: 0.082,inactive: -0.077,inactive: -0.198,inactive: -0.042,inactive: 0.161,inactive: -0.055,inactive: -0.193
CDNF (UniProt Q49AH0),inactive: -0.111,–,–,–,–,–,–,–,–,–
CHAF1B (UniProt Q13112),inactive: -0.01,inactive: -0.048,inactive: -0.023,inactive: -0.016,inactive: -0.079,inactive: 0.041,inactive: -0.014,inactive: 0.048,inactive: -0.031,inactive: 0.047
CDK5RAP2 (UniProt Q96SN8),inactive: -0.265,–,–,–,–,–,–,–,–,–
CDK1 (UniProt P06493),inactive: 0.04,inactive: 0.024,inactive: 0.007,inactive: 0.02,inactive: -0.083,inactive: -0.036,inactive: 0.009,inactive: 0.017,inactive: 0.008,inactive: -0.002
CHAF1A (UniProt Q13111),inactive: -0.149,inactive: 0.143,inactive: -0.145,inactive: 0.05,inactive: 0,inactive: 0.007,inactive: 0.169,inactive: 0.004,inactive: 0.169,inactive: 0.031
CEP350 (UniProt Q5VT06),inactive: -0.263,inactive: 0.111,inactive: 0.113,inactive: 0.031,inactive: -0.004,inactive: -0.192,inactive: 0.055,inactive: -0.214,inactive: 0.024,inactive: -0.166
CDSN (UniProt Q15517),inactive: 0.704,inactive: 0.324,inactive: -0.516,inactive: 0.405,inactive: 1.63,inactive: 0.236,inactive: 0.102,inactive: -0.067,inactive: -0.096,inactive: -0.031
CDK6 (UniProt Q00534),inactive: -0.012,inactive: 0.037,inactive: 0.021,inactive: -0.06,inactive: -0.051,inactive: 0.036,inactive: 0,inactive: -0.012,inactive: -0.019,inactive: 0.015
CDK5 (UniProt Q00535),inactive: 0.004,inactive: 0.024,inactive: -0.003,inactive: -0.099,inactive: -0.046,inactive: 0.054,inactive: 0.002,inactive: 0,inactive: -0.033,inactive: -0.011
CENPH (UniProt Q9H3R5),inactive: -0.061,inactive: 0.079,inactive: 0.09,inactive: 0.17,inactive: 0.047,inactive: 0.096,inactive: -0.082,inactive: 0,inactive: -0.075,–

Target,log2 fold change [1],log2 fold change (filanesib),log2 fold change (zotarolimus),log2 fold change (idasanutlin),log2 fold change (alisertib),log2 fold change [2],log2 fold change (gefitinib),log2 fold change [3],log2 fold change (lapatinib),log2 fold change (pictilisib)
CEP170 isoform 3 (UniProt Q5SW79),inactive: 0.224,–,–,–,–,–,–,–,–,–
CENPO (UniProt Q9BU64),inactive: -0.081,inactive: -0.047,inactive: 0.045,inactive: 0.047,inactive: -0.166,inactive: -0.041,inactive: -0.243,inactive: -0.203,inactive: -0.045,–
CDK16 isoform 2 (UniProt Q00536),inactive: 0.029,inactive: 0.021,inactive: -0.028,inactive: -0.036,inactive: 0.02,inactive: 0.252,inactive: -0.086,inactive: 0.037,inactive: 0.002,–
CHCHD4 isoform 2 (UniProt Q8N4Q1),inactive: 0,inactive: -0.059,inactive: 0.032,inactive: -0.043,inactive: -0.099,inactive: -0.285,inactive: 0.011,inactive: 0.102,inactive: 0.341,inactive: -0.016
CEPT1 (UniProt Q9Y6K0),inactive: 0.029,inactive: -0.277,inactive: -0.095,inactive: -0.142,inactive: 0.009,inactive: 0.022,inactive: -0.025,inactive: 0.036,inactive: 0.095,inactive: 0.011
CHMP4A isoform 2 (UniProt Q9BY43),inactive: -0.018,inactive: -0.013,inactive: -0.054,inactive: 0.037,inactive: -0.043,inactive: 0.087,inactive: 0.004,inactive: 0.049,inactive: -0.078,inactive: 0.036
CDK4 (UniProt P11802),inactive: -0.111,inactive: 0.09,inactive: -0.071,inactive: 0.061,inactive: 0.062,inactive: -0.049,inactive: 0.017,inactive: -0.057,inactive: -0.031,–
CENPS (UniProt Q8N2Z9),inactive: -0.064,inactive: 0.007,inactive: 0.041,inactive: -0.025,inactive: -0.378,inactive: 0.098,inactive: -0.016,inactive: 0.104,inactive: 0.031,inactive: -0.038
CEP44 (UniProt Q9C0F1),inactive: -0.055,inactive: 0.057,inactive: -0.117,inactive: -0.106,inactive: -0.028,inactive: 0.06,inactive: 0.088,inactive: 0.133,inactive: -0.099,inactive: 0.089
CHMP2B (UniProt Q9UQN3),inactive: -0.028,inactive: -0.036,inactive: -0.016,inactive: -0.009,inactive: -0.032,inactive: -0.054,inactive: -0.009,inactive: 0.055,inactive: 0.081,inactive: -0.039
CETN3 (UniProt O15182),inactive: -0.211,inactive: -0.026,inactive: 0.041,inactive: 0.068,inactive: -0.058,inactive: 0.161,inactive: -0.001,inactive: 0.072,inactive: -0.175,inactive: 0.061
CDS2 (UniProt O95674),inactive: -0.085,inactive: -0.023,inactive: -0.095,inactive: -0.009,inactive: -0.1,inactive: -0.052,inactive: -0.04,inactive: 0.029,inactive: 0.037,inactive: -0.061
CDK13 (UniProt Q14004),inactive: -0.323,inactive: 0.169,inactive: 0.029,inactive: 0.215,inactive: -0.141,inactive: -0.197,inactive: 0.001,inactive: 0.037,inactive: 0.054,inactive: -0.048
CETN2 (UniProt P41208),inactive: -0.114,inactive: 0.225,inactive: -0.067,inactive: 0.042,inactive: -0.112,inactive: 0.141,inactive: 0.019,inactive: 0.028,inactive: -0.207,inactive: 0.028
CERS5 (UniProt Q8N5B7),inactive: -0.034,inactive: -0.265,inactive: -0.055,inactive: 0.369,inactive: -0.122,inactive: -0.046,inactive: 0.032,inactive: 0.03,inactive: -0.014,inactive: 0.081
CDK11B (UniProt P21127),inactive: -0.253,inactive: -0.009,inactive: -0.046,inactive: -0.094,inactive: 0.011,inactive: 0.151,inactive: 0.095,inactive: 0.097,inactive: -0.069,inactive: -0.057
